# Reference: PMC12040169 (PLOS Biology, 2025)
# The other results are listed elsewhere or left out.
# System: T1, CTL2-GFP (C. trachomatis L2/434/Bu, GFP-expressing)
# T1 construct: L2/434/Bu, GFP-expressing
# Parameters: species or system HeLa; Intracellular C. trachomatis growth in HeLa cells, bulk GFP fluorescence relative to DMSO
# Settings: bulk GFP, single well; 28.5 h, 10 µM; inhibitor
row,SMILES,% of control remaining [%]
1,Cc1cccc2cnc(C3CCN(C(=O)CCc4ccno4)CC3)cc12 [CBK285197],107.719
2,O=C(NCCc1ccccc1)NCCc1cccs1 [CBK045154],148.23
3,O=C(Cn1cc(Br)ccc1=O)NC1CCN(CCc2ccccc2)CC1 [CBK305887],76.9709
4,CCCC/C=C/c1cncc(N2CCN(c3ccccc3C#N)CC2)n1 [CBK037369],123.277
5,Cc1cc(S(=O)(=O)NCCn2nc(C)c(C)c2C)ccc1F [CBK281382],143.06
6,O=C(O)COc1ccccc1/C=N/n1c(S)nnc1-c1cccnc1 [CBK265337],130.404
7,CC1CCc2sc(C(=O)N3CCC4(CC3)NC(=O)NC4=O)cc2C1 (stereo not shown) [CBK304992],131.109
8,O=c1cc(N2CCCCC2)cnn1CCCn1cccn1 [CBK306907],129.212
9,COc1cc(NC(=O)C2CCN(S(=O)(=O)c3cccs3)CC2)c(Cl)cc1C(=O)O [CBK297085],126.141
10,Cc1ccc(S(=O)(=O)Nc2cccc(C(=O)O)c2)cc1 [CBK038891],133.228
11,CN1CCN(C(=O)c2cccc(-c3nc(-c4ccc(C#N)cc4)cnc3N)c2)CC1 [CBK064144],93.9375
12,O=C(NCc1ccccn1)C1CCN(S(=O)(=O)c2ccc(Cl)cc2)CC1 [CBK264959],123.798
13,Oc1cccc(-c2nccnc2NCCc2ccccn2)c1 [CBK037388],208.177
14,O=C(NC1CCN(Cc2ccccc2)C1)c1ccc(F)cc1 (stereo not shown) [CBK283044],117.84
15,O=C(Cc1ccccc1)N1CCC(CC(=O)N2CCC3(CCCCC3)C2)CC1 [CBK286031],123.262
16,O=C(O)CCN1CCn2c3c(c4cc(C5CCCCC5)ccc42)CCCC31 (stereo not shown) [CBK263236],119.005
17,O=C(Nc1cccnc1)c1ccc(CN2CCC(Cc3ccccc3)CC2)cc1 [CBK264095],111.8
18,Cn1c(CN2CCCC2)nc2cc(NC(=O)c3cccc([N+](=O)[O-])c3)ccc21 [CBK268316],113.317
19,CS(=O)(=O)Nc1ccc(CNC(=O)C2(c3ccccc3)CCCC2)cc1 [CBK161525],107.208
20,O=[N+]([O-])c1ccc(NCCNCCO)c(Cl)c1 [CBK261006],112.157
21,O=C(C1CCCO1)N1C2CCC1CC(O)(c1ccco1)C2 (stereo not shown) [CBK284035],133.9
22,CCCC/C=C/c1cc(NCCc2ccccn2)n2nccc2n1 [CBK037155],104.079
23,CN1CCN(C(=O)c2ccc(Cl)c(S(=O)(=O)N3CCCCC3)c2)CC1 [CBK262228],93.0339
24,NS(=O)(=O)c1ccc(CCNC(=O)C2c3ccccc3Oc3ccccc32)cc1 [CBK264389],100
25,COc1cc(OC)nc(C(NC(=O)C2CCN(Cc3cn(C)c4ccccc34)CC2)c2ccc(F)cc2)n1 (stereo not shown) [CBK148185],118.017
26,O=C(Cn1c(-c2cccs2)n[nH]c1=S)N1CCC(c2nc3cc(Cl)ccc3o2)CC1 [CBK297765],116.417
27,Cc1ncc(CN(Cc2ccccn2)Cc2ccccc2Cl)n1C [CBK282128],151.114

# 3 successive compounds from above, for reference:
row,SMILES,% of control remaining [%]
11,CN1CCN(C(=O)c2cccc(-c3nc(-c4ccc(C#N)cc4)cnc3N)c2)CC1 [CBK064144],93.9375
12,O=C(NCc1ccccn1)C1CCN(S(=O)(=O)c2ccc(Cl)cc2)CC1 [CBK264959],123.798
13,Oc1cccc(-c2nccnc2NCCc2ccccn2)c1 [CBK037388],208.177

# Remaining list, next part

row,SMILES,% of control remaining [%]
1,O=c1ccc2c(-c3ccccc3)ccnc2[nH]1 [CBK073723],98.1302
2,Cc1nc(COc2ccc(F)cc2)sc1C(=O)O [CBK305074],140.438
3,Cc1cc(C)c(S(=O)(=O)Nc2nnc(C(C)C)s2)c(C)c1 [CBK045516],121.27
4,Cc1cc(N(C)CCc2ccccc2)nc2cc(Cl)ccc12 [CBK262221],99.1346
5,COc1ccc(Nc2nc(-c3cccnc3)cnc2N)cc1 [CBK063952],102.388
6,O=C1NCCCC12CCN(Cc1cccc(F)c1F)CC2 [CBK284877],125.466
7,O=C(CN1CCC(O)(Cc2ccccc2)CC1)N1CCCCCC1 [CBK283500],130.825
8,COc1ccc(C(=O)N2CCN3C(=O)CCC32C)s1 (stereo not shown) [CBK282058],114.399
9,CCCC(=O)c1ccc(S(=O)(=O)N2CCN(Cc3csc(-c4ccccc4)n3)CC2)cc1 [CBK063161],86.4909
10,CC(=O)NCCSc1nc2ccccc2nc1NC(C)C [CBK105618],107.494
11,C/C(=N\NC(=O)c1ccc(CN2CCOCC2)cc1)c1ccc2c(c1)OCCO2 [CBK262755],102.071
12,O=C1COc2ccccc2C/C=C/C[C@H]2CNCC[C@H]2N1 [CBK292033],151.86
13,Cn1cc(-c2nc(C3CCCCCN3C(=O)c3cccnc3)no2)cn1 (stereo not shown) [CBK305387],106.26
14,CC(C)Nc1cc(Sc2ccc(Br)cc2)ncn1 [CBK089502],74.4683
15,O=C1CC(N2CCN(Cc3ccc4c(c3)OCO4)CC2)C(=O)N1CCc1ccccc1 (stereo not shown) [CBK074541],102.892
16,Clc1cncc(OCCc2c[nH]c3ccccc23)n1 [CBK176027],119.544
17,Cc1ccc2[nH]c(Cc3ccc(NC(=O)c4cc(=O)n(C)c5ccccc45)cc3)nc2c1 [CBK285815],123.424
18,Cn1cc(C(=O)N2CCC3(C/C=C/C[C@H]4COCC[C@H]4NC(=O)CNC3=O)CC2)cn1 [CBK292069],142.438
19,COc1cc(CNC(=O)c2cccc(-c3ccc(OC4CCNCC4)cc3)n2)cc(OC)c1OC [CBK126550T],107.988
20,CCOC(=O)C(NC(=O)N(C1=NCC(C)S1)C1CCCCC1)(OC)C(F)(F)F (stereo not shown) [CBK021431],123.112
21,CC(NS(=O)(=O)c1ccc(Cl)cc1)C(=O)Nc1ccccc1Sc1ccccc1 (stereo not shown) [CBK266984],154.4
22,Cc1ccc(N(CC(=O)Nc2ccc(C)cc2C)S(=O)(=O)N2CCCC2)cc1 [CBK265998],83.3145
23,N#CC1CCCc2c1[nH]c1ccc(Cl)cc21 (stereo not shown) [CBK101438],90.1988
24,Cc1ccc(C2=CCN(S(=O)(=O)c3ccc(F)cc3)CC2)o1 [CBK283571],75.8405
25,Cc1nn(CCC#N)c(C)c1[C@@H]1C=C[C@@H](NC(=O)NC(C)C)C1 [CBK289172],123.131
26,Cc1cccc(C(=O)Nc2ccc(C(=O)NNC(=O)C(C)(C)C)cc2)c1 [CBK269073],114.935
27,CC1CN(Cc2nc3c(c(=O)n(C)c(=O)n3C)n2CCN2CCOCC2)CC(C)O1 (stereo not shown) [CBK269340],101.552

row,SMILES,% of control remaining [%]
1,NC(=O)c1cccnc1N1CCN(CCCN(c2ccc(F)cc2)c2ccc(F)cc2)CC1 [CBK025341C],106.988
2,COC(=O)CN1C(=O)CC2(C1=O)C(=O)N(Cc1ccccc1)c1ccc(F)cc12 (stereo not shown) [CBK075143],110.415
3,C#C[C@H]1C[N@@]2CC[C@H]1C[C@@H]2CNC(=O)Nc1cccc(C#N)c1 [CBK288754],142.158
4,Cc1c(C(=O)O)c2cc(O)ccc2n1-c1ccccc1 [CBK115329],85.5281
5,Nc1ccc(-c2ccc(OC(F)(F)F)cc2)c2ccccc12 [CBK084327],99.6511
6,O=c1cc2oc3cc(O)c(O)cc3c(-c3cccc(OCc4ccc([N+](=O)[O-])cc4)c3)c-2cc1O [CBK265388],88.3327
7,CCCn1c(SCC(=O)N2CCc3ccccc32)nc(O)cc1=O [CBK305843],102.112
8,COc1ccc(-c2cc(C3CCCCCN3)no2)cc1 (stereo not shown) [CBK285399],125.202
9,Cc1noc(C)c1S(=O)(=O)Nc1csc(C(F)(F)F)c1-c1ccccc1 [CBK001237],96.4072
10,O=[N+]([O-])c1cccc(C(Nc2ccccn2)n2cnc3ccccc32)c1 (stereo not shown) [CBK261145],99.1338
11,Cc1cc(OC(C)C(=O)Nc2ccccc2C(=O)N2CCCC2)ccc1Cl (stereo not shown) [CBK269710],175.205
12,Cc1ccc(NS(=O)(=O)c2cc(C(=O)Nc3ccc(S(=O)(=O)N4CCCC4)cc3)ccc2C)cc1 [CBK268784],62.7076
13,NC(=O)C1CCN(C(=O)c2cc(O)nc3ccccc23)CC1 [CBK296719],127.433
14,c1cnc(-c2ccsc2)c(OC2CCCCC2)n1 [CBK106764],100
15,O=C(O)c1cccc2c1C(=O)C(CC1CCCO1)N2 (stereo not shown) [CBK287140],153.536
16,CSc1nnc(-c2ccc(Br)cc2)o1 [CBK026502],142.702
17,O=C1N2CCSC2=NC1(Nc1nccs1)C(F)(F)F (stereo not shown) [CBK267484],143.884
18,CS(=O)(=O)N1CC2(CCN(CCO)CC2)c2ccccc21 [CBK126677],110.779
19,CCc1c(C)cc(C(=O)N(C)C(CC)c2ccccn2)c(=O)n1C (stereo not shown) [CBK307078],180.764
20,CC(C)[C@H](CO)n1c(=O)[nH]c2ncc(-c3cccc4ncccc34)nc21 [CBK064955],225.186
21,Cc1cc(NC(=O)Cc2ccc(Cl)c(Cl)c2)c2ccccc2n1 [CBK116266],109.744
22,O=C1NC2(CCCN(C(=O)c3ccco3)C2)Nc2ccccc21 (stereo not shown) [CBK284803],110.926
23,CCCOC(=O)Cn1cnc2sc(C)c(C)c2c1=O [CBK304371],130.16
24,CCN(Cc1ccccc1)C(=O)NCCc1c[nH]cn1 [CBK155220],117.505
25,N#Cc1cccc(C(=O)N2CCCC3(CCN(Cc4ccccc4)C3)C2)c1 (stereo not shown) [CBK136893],118.271
